These are yes or no findings as the source states them, for the method shown. Binding seen in cells or lysates may run through a third protein. Some entries that bind do so weakly or less than the wild type. For part of these data: Where a sequence is shown, tags or fusion partners need not be part of it.
What was measured:
[1] = target: T1, RIMKLA-His fusion protein (recombinant RIMKLA) (mouse) (UniProt Q6PFX8); assay: pull-down; RIMKLA-His from E. coli lysate held on His-tag purification resin (empty vector PET28a lysate as control), washed; total cell extracts added overnight; western blot with antibodies against RIMKLA or BHMT1; only the target purified
T1 sequence: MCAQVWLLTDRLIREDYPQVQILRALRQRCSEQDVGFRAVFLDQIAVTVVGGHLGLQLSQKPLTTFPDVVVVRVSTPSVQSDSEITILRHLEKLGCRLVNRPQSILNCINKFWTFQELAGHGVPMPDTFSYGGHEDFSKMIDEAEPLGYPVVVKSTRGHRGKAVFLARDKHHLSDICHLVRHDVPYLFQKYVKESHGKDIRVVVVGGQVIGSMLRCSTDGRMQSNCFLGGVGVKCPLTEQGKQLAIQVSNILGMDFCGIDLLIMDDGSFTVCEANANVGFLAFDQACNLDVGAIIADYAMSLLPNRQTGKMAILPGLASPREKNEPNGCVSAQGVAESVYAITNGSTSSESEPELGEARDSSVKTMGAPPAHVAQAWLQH

[2] = target: T2, RIMKLA containing 6×His-tag, overexpressed from adenovirus (Ad-RIMKLA) (UniProt Q6PFX8); assay: co-IP; cross co-IP: protein A/G Sepharose beads crosslinked with 10 µg RIMKLA or BHMT1 antibodies (IgG as negative control); 1 mg total protein of mouse primary hepatocytes infected with Ad-GFP or Ad-RIMKLA for 24 h, overnight at 4 °C; immunoblot
T2 sequence: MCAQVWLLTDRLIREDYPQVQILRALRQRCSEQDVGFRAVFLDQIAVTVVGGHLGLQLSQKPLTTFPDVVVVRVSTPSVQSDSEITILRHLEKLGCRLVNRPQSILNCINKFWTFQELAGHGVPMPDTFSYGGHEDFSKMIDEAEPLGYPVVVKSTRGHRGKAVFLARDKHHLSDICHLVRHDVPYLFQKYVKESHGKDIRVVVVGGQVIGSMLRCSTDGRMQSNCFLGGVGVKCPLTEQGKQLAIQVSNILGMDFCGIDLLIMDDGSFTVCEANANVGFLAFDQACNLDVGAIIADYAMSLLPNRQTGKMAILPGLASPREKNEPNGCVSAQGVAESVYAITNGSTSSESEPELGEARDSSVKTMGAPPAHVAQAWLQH

[3] = target: T3, ribosomal modification protein rimK-like family member A (RIMKLA), endogenous (mouse (endogenous in primary mouse hepatocytes)) (UniProt Q6PFX8); assay: as above
T3 sequence: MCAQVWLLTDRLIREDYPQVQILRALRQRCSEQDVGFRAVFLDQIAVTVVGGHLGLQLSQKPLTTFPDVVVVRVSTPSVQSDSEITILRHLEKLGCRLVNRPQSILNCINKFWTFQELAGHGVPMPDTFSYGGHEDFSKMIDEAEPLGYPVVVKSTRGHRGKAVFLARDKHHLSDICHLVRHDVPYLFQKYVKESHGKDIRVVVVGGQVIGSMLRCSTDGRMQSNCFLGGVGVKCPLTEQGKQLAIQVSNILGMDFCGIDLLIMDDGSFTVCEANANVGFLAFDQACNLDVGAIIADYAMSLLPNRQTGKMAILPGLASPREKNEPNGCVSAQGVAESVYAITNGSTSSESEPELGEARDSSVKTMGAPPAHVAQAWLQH

Measured: binding

B1: betaine-homocysteine S-methyltransferase 1 (BHMT1), endogenous (enzyme, UniProt O35490 1-407)
chain: MAPVAGKKAKKGILERLNAGEVVIGDGGFVFALEKRGYVKAGPWTPEAAVEHPEAVRQLHREFLRAGSNVMQTFTFYASEDKLENRGNYVAEKISGQKVNEAACDIARQVADEGDALVAGGVSQTPSYLSCKSEVEVKKIFRQQLEVFMKKNVDFLIAEYFEHVEEAVWAVEALKASGKPVAATMCIGPEGDLHGVPPGECAVRLVKAGASIVGVNCHFDPSVSLQTVKLMKEGLEAARLKAYLMSQPLAYHTPDCGKQGFIDLPEFPFGLEPRVATRWDIQKYAREAYNLGVRYIGGCCGFEPYHIRAIAEELAPERGFLPPASEKHGSWGSGLDMHTKPWIRARARKEYWQNLRIASGRPYNPSMSRPDAWGVTKGAAELMQQKEATTEQQLRELFEKQKFKSAQ
binds: all assays above

From PMC11310345
